By UniProt entry, the sequences of proteins in these tests, tags left out.
UniProt P67809: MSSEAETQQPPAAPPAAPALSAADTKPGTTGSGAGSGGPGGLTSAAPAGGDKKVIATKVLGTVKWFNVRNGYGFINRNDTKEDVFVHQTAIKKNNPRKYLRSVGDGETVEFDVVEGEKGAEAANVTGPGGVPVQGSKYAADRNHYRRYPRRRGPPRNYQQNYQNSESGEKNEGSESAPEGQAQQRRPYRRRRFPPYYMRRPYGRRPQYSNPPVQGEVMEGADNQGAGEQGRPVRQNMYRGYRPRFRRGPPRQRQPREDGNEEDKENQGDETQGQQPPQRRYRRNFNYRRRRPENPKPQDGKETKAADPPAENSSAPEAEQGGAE

In PMC12335500:

Target: T1, EPS8L2 with a C-terminal Flag tag (overexpressed in HCT116 and SW480 cells) (human) (UniProt Q9H6S3)
T1 sequence: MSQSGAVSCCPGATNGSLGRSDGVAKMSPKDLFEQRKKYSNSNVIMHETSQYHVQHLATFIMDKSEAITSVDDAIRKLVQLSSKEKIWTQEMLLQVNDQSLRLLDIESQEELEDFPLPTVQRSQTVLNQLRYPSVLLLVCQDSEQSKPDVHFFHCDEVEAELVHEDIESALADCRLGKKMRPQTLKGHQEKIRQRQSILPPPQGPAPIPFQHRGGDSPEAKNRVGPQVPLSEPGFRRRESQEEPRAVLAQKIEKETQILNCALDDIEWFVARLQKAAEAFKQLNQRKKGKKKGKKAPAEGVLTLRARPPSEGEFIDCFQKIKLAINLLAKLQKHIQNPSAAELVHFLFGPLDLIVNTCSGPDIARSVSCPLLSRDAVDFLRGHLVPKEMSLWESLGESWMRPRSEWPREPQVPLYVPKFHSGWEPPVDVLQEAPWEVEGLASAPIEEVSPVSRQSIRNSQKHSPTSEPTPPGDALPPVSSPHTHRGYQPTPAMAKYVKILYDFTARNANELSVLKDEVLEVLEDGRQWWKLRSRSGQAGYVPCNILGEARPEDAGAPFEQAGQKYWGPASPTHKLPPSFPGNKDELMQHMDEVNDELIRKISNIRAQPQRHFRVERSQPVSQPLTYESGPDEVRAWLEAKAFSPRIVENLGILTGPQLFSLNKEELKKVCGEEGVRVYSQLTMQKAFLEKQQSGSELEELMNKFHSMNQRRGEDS
Experiment: affinity purification with mass spectrometry; IgG or Flag antibody added to HCT116 and SW480 cell lysates (RIPA buffer), Protein A/G agarose beads; differential silver-stained band between 40 and 55 kDa cut out for MS

- binding: binds
Substance: YBX1 (endogenous, HCT116 and SW480 cells) (from UniProt P67809 1-324)

Results are given in words; binding and its absence hold for the method and conditions named. In cells and extracts the contact can be indirect. These calls come from enrichment with a bait or labelling near it, and not all partners need be listed. Tags and fused reporters may be left off the sequences shown.
